In patent US20240226067A9, “ANTI-FIBROTIC THERAPIES” (THE JOHNS HOPKINS UNIVERSITY, priority 2021, published 2024):

Tested on: CCO18CD colon fibroblasts stimulated with TGF-β
Experiment: High throughput microscopy-based anti-fibrotic drug screen (α-SMA and collagen 1 expression)
Format: cell-based
Description: FIG. 1 is images of cells from high throughput microscopy-based analysis of an FDA-approved drug library for potential anti-fibrotic properties.
FIGS. 3A-3C are images of cells from high throughput microscopy-based analysis of potential drugs for anti-fibrotic properties.

`Clc1ccc(CSC(Cn2ccnc2)c2ccc(Cl)cc2Cl)cc1` (centres unmarked) [sulconazole, 1-[2-[(4-chlorophenyl)methylsulfanyl]-2-(2,4-dichlorophenyl)ethyl]imidazole] was tested, and the “fold lower effective concentration compared to pirfenidone” value (10 μM versus 4 mM) was 400 fold and the “concentration causing reduction in α-SMA and collagen production” value (TGF-β stimulated colon fibroblasts, effect similar to pirfenidone) was 10 µM.
